The subject of the series is Ku70/80 (Ku70 subunit) + Ku70/80 (Ku80 subunit) + Pol λ WT. Put plainly: EMSA supershift. Particulars: 20 nM Ku, 50 nM Pol λ; 5'-phosphate on the 13-mer; EMSA: 50 mM Tris-HCl pH 7.5, 100 mM KCl, 2.5 mM MgCl2, 1 mM DTT, 4% glycerol, 0.05% Triton X-100, 0.1 mg/ml BSA, 10-20 nM DNA, 30 min at 25 °C; 4-5% native PAGE; recombinant protein; protein details: FLAG,FLAG,FLAG; label: IRDye 700 at 5' end of S5. For orientation: A gel shift assay detects complexes by their altered migration in electrophoresis.

The exact form of at least one protein or probe is not confirmed. At least one verdict rests on a figure or table, not on a statement of the authors.

The values that follow come from paper PMC6155126.

Regarding “ACTGGCCGTCGTTCTATTGTACTCACTGTGATC / GATCACAGTGAGTAC / AACGACGGCCAGT [5nt-gapped dsDNA 33-mer]”, the binding result is given as “binds”.
